No constants are given. Whether binding was seen depends on the method and setting. In cells and extracts the contact can be indirect. Some results given as binding are weak or reduced against the parent protein; the word gives no strength.

Sequences of proteins named here, by UniProt entry; tags and fusion partners are left off.
UniProt Q6P5G0: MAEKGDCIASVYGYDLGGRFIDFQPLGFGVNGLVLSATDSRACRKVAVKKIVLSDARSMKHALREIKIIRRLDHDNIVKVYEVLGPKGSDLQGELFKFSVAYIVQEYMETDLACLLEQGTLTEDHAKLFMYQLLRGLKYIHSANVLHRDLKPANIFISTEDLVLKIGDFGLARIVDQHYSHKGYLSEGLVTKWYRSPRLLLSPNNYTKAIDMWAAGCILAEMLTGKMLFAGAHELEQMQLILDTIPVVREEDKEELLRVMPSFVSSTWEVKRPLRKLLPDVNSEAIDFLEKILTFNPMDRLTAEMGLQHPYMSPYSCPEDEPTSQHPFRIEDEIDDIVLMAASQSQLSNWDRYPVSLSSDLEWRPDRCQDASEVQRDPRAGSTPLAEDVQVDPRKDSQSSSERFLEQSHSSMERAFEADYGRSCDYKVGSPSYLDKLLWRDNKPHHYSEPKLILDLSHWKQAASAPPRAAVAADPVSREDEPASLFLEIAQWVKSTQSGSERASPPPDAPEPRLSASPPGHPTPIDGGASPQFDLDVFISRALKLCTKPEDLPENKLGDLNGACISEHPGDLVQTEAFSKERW

This assay deals with T1, IRF4 (mouse (endogenous in splenic B cells)) (UniProt Q64287).
T1 sequence: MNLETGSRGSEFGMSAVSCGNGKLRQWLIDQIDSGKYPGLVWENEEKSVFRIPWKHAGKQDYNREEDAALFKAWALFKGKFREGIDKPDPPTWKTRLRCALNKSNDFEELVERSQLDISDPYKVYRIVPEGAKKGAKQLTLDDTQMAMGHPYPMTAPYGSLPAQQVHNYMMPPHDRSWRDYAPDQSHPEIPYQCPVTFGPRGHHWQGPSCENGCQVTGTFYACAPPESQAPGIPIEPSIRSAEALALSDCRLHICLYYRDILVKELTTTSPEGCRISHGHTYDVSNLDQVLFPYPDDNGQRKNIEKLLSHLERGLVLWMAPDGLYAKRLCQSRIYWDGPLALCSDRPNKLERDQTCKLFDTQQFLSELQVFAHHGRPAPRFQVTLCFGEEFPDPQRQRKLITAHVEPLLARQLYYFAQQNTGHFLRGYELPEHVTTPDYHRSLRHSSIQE
The assay can be described thus: co-IP; splenic B cell lysates from WT mice incubated with anti-IRF4, anti-MAPK4 or control IgG overnight at 4 °C, then Protein A/G beads; IRF4 and MAPK4 detected in IP and input samples by Western blotting. For orientation: Immunoblotting shows a protein as a band on a membrane.

Take “MAPK4 (Mitogen-Activated Protein Kinase 4) (from UniProt Q6P5G0 1-583)”: the binding result is “binds”.

The values above are taken from article PMC11763251.
